# Source: patent US9820481B2, “Encapsulation of active ingredients and method of making” (Arch Chemicals, Inc., priority 2013, dated 2017)
# Assay: Color (CIE L*a*b*, gloss, ΔYE) of flexible PVC films containing zinc pyrithione
# Details: 2000 ppm in flexible PVC film
# [1] = pressed at 160° C., over white leneta board
substance,measurement,setting,value
zinc pyrithione [Zinc Pyrithione-Std],G (gloss),pressed at 160° C.,26.4
same,L,[1],88.68
same,a,[1],0.24
same,b,[1],8.67
same,Delta-YE,ΔYE with respect to white,18.12
